# Experimental data taken from PubChem BioAssay AID2551 (National Center for Advancing Translational Sciences (NCATS), 2010).
# Amino acid sequences for entries named in this document (tags omitted). A change or cut given only in a name is not applied to a line headed by its entry.
# UniProt P51450: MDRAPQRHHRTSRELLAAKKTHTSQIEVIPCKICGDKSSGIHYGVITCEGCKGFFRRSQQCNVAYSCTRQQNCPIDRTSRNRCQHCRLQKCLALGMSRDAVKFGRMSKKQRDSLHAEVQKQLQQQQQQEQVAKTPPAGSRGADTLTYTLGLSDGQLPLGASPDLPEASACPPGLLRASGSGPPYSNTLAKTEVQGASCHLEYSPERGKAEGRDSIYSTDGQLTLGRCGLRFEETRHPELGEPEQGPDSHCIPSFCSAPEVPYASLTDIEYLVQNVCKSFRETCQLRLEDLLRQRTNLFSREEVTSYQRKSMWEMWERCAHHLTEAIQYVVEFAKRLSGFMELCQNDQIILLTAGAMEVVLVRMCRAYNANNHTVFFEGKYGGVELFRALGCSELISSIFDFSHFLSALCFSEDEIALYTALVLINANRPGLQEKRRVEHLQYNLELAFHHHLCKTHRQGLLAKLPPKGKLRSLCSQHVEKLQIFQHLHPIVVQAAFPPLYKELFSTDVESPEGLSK
# Screen size: about 310,000 compounds; about 17,000 (5.5%) were called active. The shares of active, inactive and inconclusive entries below differ from those in the screen. Calls come from the whole dose curve; as a rule, active = well fitted inhibition curve with a large enough effect; inconclusive = small, poorly fitted or top-dose-only effect, or effect the other way; inactive = no such curve, though single readings can be large or run the other way. A potency beside an inconclusive call is a rough fit, not a confirmed value.
# Biological target: Nuclear receptor ROR-gamma (Mus musculus) (UniProt P51450)
# Experiment: qHTS for inhibitors of ROR gamma transcriptional activity; note: nearly all actives have a fitted effect of over 60% in size
# Settings: Drosophila S2 Gal4-RORgamma UAS-luciferase reporter, 20 h; activity change, negative = inhibition: at 53.6 µM (top of the series)
# Outline: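 Stably transfected Drosophila Schneider cells are the test system, with ROR gamma fused to Gal4 and luciferase under UAS control; luminescence is read after 20 hr of 700 uM copper sulfate induction at ambient temperature.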
# % is set by controls: 0 for no effect and ±100 for the full control effect; potency is the fitted concentration of half-maximal effect.
SMILES,Potency,"activity change, negative = inhibition"
COc1ccc(NS(=O)(=O)c2ccc(C)c(NC(=O)c3ccc(C)c(S(=O)(=O)N4CCOCC4)c3)c2)cc1,"inconclusive: 12.6 µM [activator, partial curve]",–
CC(C)=C1SC(N2CCN(Cc3ccccc3)CC2)=NC1=O,"inconclusive: 14.1 µM [activator, partial curve]",–
CC(=O)c1cccc(CN2CCCC(CCC(=O)NCc3ccccc3F)C2)c1 (configuration not stated),–,inactive: 0.697%
CCC(c1nnnn1C1CCCC1)N(Cc1cccs1)Cc1cc2cccc(C)c2[nH]c1=O (configuration not stated),"inconclusive: 11.2 µM [activator, partial curve, poor fit]",–
O=C1/C(=C\c2ccc3c(c2)OCO3)CCC/C1=C/c1ccc2c(c1)OCO2,–,inactive: -27.7%
CCCc1nnc(NC(=O)c2cc(OC)cc(OC)c2)s1,active: 11.2 µM,–
CC(O)[C@H]1CNC(=O)C(=O)N1CC1(c2ccccc2)CC1 (some centres not stated),"inconclusive: 1.26 µM [inhibitor, full curve, poor fit]",–
S=c1[nH]nc(COc2ccc(Cl)cc2)n1-c1ccc(Cl)cc1,active: 5.62 µM,–
CC(C)Nc1oc(Cc2cccc3ccccc23)nc1C#N,"inconclusive: 35.5 µM [activator, single point]",–
Cc1cc(Cl)n2ncc(-c3ccccc3)c2n1,active: 15.8 µM,–
CCC(C)[C@H]1CNC(=S)N1CCc1cc(C(F)(F)F)cc(C(F)(F)F)c1 (some centres not stated),active: 2.24 µM,–
COc1ccc(OC)c(-c2csc(NC(=O)Cc3ccc(OC)c(OC)c3)n2)c1,"inconclusive: 14.1 µM [activator, partial curve]",–
COc1cccc(N2CCN(c3ncnc4c3[nH]c3ccc(F)cc34)CC2C)c1 (configuration not stated),"inconclusive: 31.6 µM [inhibitor, single point]",–
CCN(CC(=O)NC(=O)NCc1ccco1)Cc1nc2ccccc2c(=O)[nH]1,active: 0.562 µM,–
O=S(=O)(c1ccccc1)c1nc(-c2ccccc2Cl)oc1NCCN1CCOCC1,–,inactive: -1.21%
COc1ccc(/C=N\NC(=O)COc2ccccc2Cl)cc1Cn1nc(C)cc1C,"inconclusive: 20 µM [inhibitor, single point]",–
O=c1c2c(nc3n1CCCCC3)sc1c(O)c(Br)ccc12,active: 8.91 µM,–
Cc1cccc(Nc2nc(-c3ccc4c(c3)OCCO4)cs2)c1,–,inactive: -24.4%
COc1cc(/C=C2\CC(C(C)(C)C)C/C(=C\c3cc(OC)c(OC)c(OC)c3)C2=O)cc(OC)c1OC (configuration not stated),"inconclusive: 12.6 µM [inhibitor, single point]",–
N#Cc1c(NC(=O)c2ccc(Cn3cc(Br)cn3)o2)sc2c1CCCCC2,"inconclusive: 15.8 µM [activator, partial curve]",–
O=C(NCC1CCCO1)c1sc2cc(Cl)ccc2c1Cl (configuration not stated),"inconclusive: 8.91 µM [activator, partial curve]",–
Cc1ccnc(NC(c2cccnc2)c2ccc3cccnc3c2O)c1 (configuration not stated),active: 3.16 µM,–
Cc1cc(C(=O)NN=C(Cc2ccccc2)Cc2ccccc2)c(C)o1,"inconclusive: 35.5 µM [inhibitor, single point]",–
Cc1cc(/C=C(/C#N)c2nc3ccccc3[nH]2)c(C)n1-c1cc(C(=O)O)cc(C(=O)O)c1,–,inactive: 29.4%

# Quoted at random: four records from the list, in no set order.
SMILES,Potency,"activity change, negative = inhibition"
Cc1cc(Cl)n2ncc(-c3ccccc3)c2n1,active: 15.8 µM,–
COc1ccc(NS(=O)(=O)c2ccc(C)c(NC(=O)c3ccc(C)c(S(=O)(=O)N4CCOCC4)c3)c2)cc1,"inconclusive: 12.6 µM [activator, partial curve]",–
CCC(C)[C@H]1CNC(=S)N1CCc1cc(C(F)(F)F)cc(C(F)(F)F)c1 (some centres not stated),active: 2.24 µM,–
COc1cccc(N2CCN(c3ncnc4c3[nH]c3ccc(F)cc34)CC2C)c1 (configuration not stated),"inconclusive: 31.6 µM [inhibitor, single point]",–

# Next part

SMILES,Potency,"activity change, negative = inhibition"
COc1cc(/C=N/OCC(=O)NC23CC4CC(CC(C4)C2)C3)ccc1OCc1ccccc1,"inconclusive: 14.1 µM [activator, single point]",–
COc1ccccc1CC(=O)N1CCN(c2ccccn2)CC1,"inconclusive: 35.5 µM [activator, single point]",–
Fc1ccc(CSc2nnc(-c3cc4c(s3)-c3ccccc3CC4)o2)cc1,"inconclusive: 22.4 µM [inhibitor, single point]",–
Fc1ccc(-c2cc(-c3nnc4n3CCCCC4)c3ccccc3n2)cc1,"inconclusive: 3.16 µM [inhibitor, single point]",–
CC(C#N)Sc1nnc(-c2ccccc2F)n1C1CC1 (configuration not stated),–,inactive: -13.1%
COCCn1c(NCc2ccc(C)cc2)nc2c1c(=O)[nH]c(=O)n2C,"inconclusive: 0.0056 µM [activator, full curve, poor fit]",–
Cc1ccc(C(=O)N(CCCN(C)C)c2nc3ccc(Cl)cc3s2)cc1C,active: 10 µM,–
O=C(NC1CCCCC1)C(c1ccc2ncccc2c1)N(Cc1ccc2c(c1)OCO2)C(=O)c1cccs1 (configuration not stated),"inconclusive: 11.2 µM [inhibitor, single point]",–
COCCn1c(CNc2ccc(F)cc2)nnc1SCC(=O)Nc1ccc(OC)cc1OC,–,inactive: 21.4%
CCN1CCN(c2ccc(NC(=O)c3ccco3)cc2)CC1,"inconclusive: 12.6 µM [inhibitor, partial curve, poor fit]",–
Cc1ccc2nc(SCc3nnc(-c4cccs4)o3)[nH]c2c1,–,inactive: 41.5%
O=C(CSc1nnc(-c2ccco2)n1Cc1ccccc1)NCc1ccccc1,"inconclusive: 0.0282 µM [activator, full curve]",–
CC(C)n1c(-c2ccco2)csc1=Nc1cccnc1,"inconclusive: 11.2 µM [inhibitor, partial curve]",–
O=C(NCc1cccnc1)c1cc(Sc2ccccc2Cl)nc2ccccc12,"inconclusive: 17.8 µM [activator, single point]",–
c1ccc(Cn2nnc3c(N4CCOCC4)ncnc32)cc1,–,inactive: 16.7%
Cc1cccnc1NC(=O)C1CCN(S(=O)(=O)c2cccs2)CC1,–,inactive: -2.68%
Cc1cc(C(=O)CN2C(=O)C3CC=CCC3C2=O)c(C)n1-c1ccccc1 (configuration not stated),"inconclusive: 3.16 µM [inhibitor, single point]",–
O=C(O)C1CCCCC1C(=O)NCCc1ccc(Cl)cc1 (configuration not stated),"inconclusive: 5.62 µM [inhibitor, single point]",–
Cc1ccc(S(=O)(=O)NC2CC2)s1,"inconclusive: 0.794 µM [inhibitor, full curve, poor fit]",–
COc1ccc(NC(=O)N(CCCN(C)C)Cc2cc3cc(OC)ccc3[nH]c2=O)cc1,–,inactive: -13.8%
COc1ccc(/C=N\NC(=O)c2ccc(-c3ccccc3)cc2)cc1COC(C)=O,"inconclusive: 12.6 µM [inhibitor, single point]",–
CCOc1ccccc1N1CCN(C(=O)Nc2ccc(Cl)c(Cl)c2)CC1,"inconclusive: 12.6 µM [activator, single point]",–
Cn1c(=O)c2c(nc(CN3CCC(C(N)=O)CC3)n2Cc2c(Cl)cccc2Cl)n(C)c1=O,–,inactive: -37.7%
COC(=O)C(Cc1ccc(OC(=O)c2ccc(C(F)(F)F)cc2)cc1)N1Cc2ccccc2C1=O (configuration not stated),"inconclusive: 8.91 µM [inhibitor, partial curve]",–

SMILES,Potency,"activity change, negative = inhibition"
COc1ccccc1CCNC(=O)C(=O)NCC1OCCN1S(=O)(=O)c1ccc(Br)cc1 (configuration not stated),"inconclusive: 10 µM [activator, partial curve]",–
Cc1ccccc1NC(=S)NCc1ccc2c(c1)cc(C)n2C,active: 6.31 µM,–
COc1ccc(CCNC(=O)CSc2ccccc2)cc1OC,"inconclusive: 31.6 µM [activator, single point]",–
COCCCNC(=S)Nc1ccc(N2CCCCC2)cc1,active: 17.8 µM,–
NC(=O)NNC(=S)Nc1cccc2ccccc12,–,inactive: -6.97%
CCOc1ccc(-c2nc(CCl)cs2)cc1OC,"inconclusive: 7.94 µM [inhibitor, partial curve]",–
O=C(NCCc1ccc2c(c1)OCCO2)c1ccc([N+](=O)[O-])cc1Cl,–,inactive: 13.5%
CC1(C)CC2CC(C)(CN2S(=O)(=O)c2ccc(C(=O)Nc3ccc(S(=O)(=O)N4CCOCC4)cc3)cc2)C1 (configuration not stated),"inconclusive: 5.01 µM [activator, single point]",–
CNC(=S)NCCN1CCOCC1,–,inactive: -2.83%
O=C(NCCc1ccccc1)c1c[nH]c2c(F)cccc2c1=O,"inconclusive: 0.562 µM [activator, full curve, poor fit]",–
CCCc1cc(-c2n[nH]c(=S)n2CC)cs1,active: 7.08 µM,–
CC(C)(C)c1ccc(S(=O)(=O)NCC(=O)N2CCCC2)cc1,–,inactive: -13.9% [at 1.91 µM]
CC#C[C@]1(O)CC[C@H]2[C@@H]3CCC4=CC(=O)CCC4=C3[C@@H](c3ccc(N(C)C)cc3)C[C@@]21C,"inconclusive: 8.91 µM [activator, partial curve]",–
CCN1C(=O)C(CC(=O)Nc2ccc(OC)cc2)N(Cc2cccs2)C1=S (configuration not stated),"inconclusive: 11.2 µM [activator, partial curve]",–
O=C(Nc1ccc(Cl)cc1C(F)(F)F)C(Sc1nnc(-c2cccs2)o1)c1ccccc1 (configuration not stated),–,inactive: -27.1%
O=S(=O)(c1ccc(Oc2ccc(Br)cc2)cc1)N1CCOCC1,"inconclusive: 0.794 µM [inhibitor, single point]",–
O=C(Cc1ccc2c(c1)CCCC2)Nc1ccc2ccccc2c1,"inconclusive: 22.4 µM [inhibitor, single point]",–
O=c1[nH]c(N2CCOCC2)nc2ncn(Cc3ccccc3)c12,–,inactive: -5.12%
CC(C)NC(=O)c1ccccc1NC(=O)/C=C/c1cccc([N+](=O)[O-])c1,"inconclusive: 5.62 µM [inhibitor, single point]",–
CCOc1ccc(C(=O)NC(=S)Nc2cccc(S(=O)(=O)NC3=NCCC3)c2)cc1,"inconclusive: 10 µM [activator, partial curve, poor fit]",–
O=C(Nc1ccc(NC(=O)c2ccccc2F)cn1)c1ccco1,active: 14.1 µM,–
COC(=O)c1cc(NC(=O)c2cccc(C(F)(F)F)c2)c(=O)oc1C/C=N/OCc1cccc(Cl)c1Cl,–,inactive: 15.6%
N#Cc1cn(-c2ccccc2)nc1-c1ccccc1,–,inactive: -1.89%
COc1ccc(NC(=O)CSc2n[nH]c(-c3ccco3)n2)cc1,"inconclusive: 35.5 µM [inhibitor, single point]",–
